54 compounds from PubChem BioAssay AID1487 (National Center for Advancing Translational Sciences (NCATS), 2009) can be followed below.

This test can be described thus: qHTS Assay for Modulators of Lamin A Splicing. The note with it: HeLa LMNA splicing GFP/RFP minigene ratio, 48 h. The procedure, abridged: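 Read-out is the ratio of GFP to DsRed2 object intensity, acquired by 488 nm laser-scanning cytometry on HeLa lamin A-EGFP minigene reporter cells. Compound incubation 48 hrs at 37 °C in Opti-MEM with 2% FBS; DMSO 0.5% final.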
A general note: In qHTS, concentration-response curves come from the screen itself.

Setting [1] is: measured here: GFP splicing reporter channel.
Where [2] appears, read: measured here: RFP viability control channel.

SMILES strings stand for the structures. The list shows a part of the results. Further columns of the screen follow, without active or inactive calls. Compounds called inactive in the main read-out are mostly missing here. Words in brackets tell the shape of the fitted curve; partial curves, single points and poor fits give uncertain potencies.

Turning to `Cc1c(Cl)cccc1NC(=O)Nc1cc(C(C)(C)C)nn1C`, the AC50 (usually the concentration at which the activity in the assay is half-maximal) was 4.47 µM [falling, partial curve, poor fit] under setting [1] and 0.00891 µM [falling, full curve, poor fit] under setting [2]. For the compound `O=C1C(=O)N(c2cccc(Cl)c2)C(c2ccccc2[N+](=O)[O-])/C1=C(\O)c1ccccc1` (stereo unspecified), the AC50 under setting [2] is 12.6 µM [falling, single point]. On to `Cc1ccc(S(=O)(=O)NC(N)=NCCc2ccc(Cl)cc2)cc1`, for which the AC50 under setting [2] is 11.2 µM [rising, partial curve]. As to `CCOc1ccc(S(=O)(=O)N(C)c2ccc(OCC(=O)Nc3nc(-c4cc(OC)ccc4OC)cs3)cc2)cc1`, the AC50 under setting [2] was 6.31 µM [rising, single point]. On to `CCSc1ccc2c(c1)N(CCCN1CCN(C)CC1)c1ccccc1S2`, for which the AC50 under setting [1] is 0.447 µM [rising, full curve, poor fit] and the AC50 under setting [2] was 0.0794 µM [rising, full curve, poor fit]. For the compound `CC(C)c1ccc(NC(=O)Cc2cn(C)c3ccccc23)cc1`, under setting [2], the AC50 was 0.794 µM [falling, full curve, poor fit]. `c1ccc(-c2ccc(OCCCn3cncn3)cc2)cc1`: the AC50 under setting [2] is 11.2 µM [rising, single point]. On to `COc1ccc(/C=C(/NC(=O)c2ccccc2)c2nc3ccc(Cl)cc3[nH]2)cc1OC`, for which the AC50 was 7.08 µM [rising, partial curve, poor fit] under setting [1] and 35.5 µM [rising, partial curve] under setting [2]. Regarding `Cc1cccc(Oc2sc(C(=O)c3ccccc3)c(N)c2C#N)c1C`, the AC50 runs as follows: under setting [1], 31.6 µM [falling, single point]; under setting [2], 25.1 µM [falling, single point]. In the case of `O=C(N/N=C/c1ccsc1)c1cc(-c2cccs2)nc2ccccc12`, the AC50 under setting [2] was 7.08 µM [rising, partial curve]. In the case of `COc1ccc(NS(=O)(=O)c2ccc(OCC(=O)N3CCOCC3)cc2)cc1`, the AC50 under setting [2] was 22.4 µM [rising, single point].

`CC(C)CNC(=S)NC(=O)c1ccc(Cl)cc1`: under setting [2], the AC50 is 31.6 µM [rising, single point]. In the case of `CC(C)(C)c1cc(C(=O)NCc2ccccc2)ccn1`, the AC50 under setting [1] was 3.98 µM [rising, partial curve, poor fit] and the AC50 under setting [2] is 10 µM [rising, partial curve].

For `COc1ccc(/C=C2\SC(=S)N(N3C(=O)CCC3=O)C2=O)cc1O`, the AC50 under setting [2] was 5.62 µM [falling, partial curve, poor fit]. As to `CCOC(=O)c1cc(-c2cc(OC)c(OC)c(OC)c2)nc2c1c(=O)[nH]c(=O)n2Cc1ccccc1`, under setting [1], the AC50 was 3.16 µM [falling, partial curve]. The same measure, in the same setting: next, `Cc1c(O)cccc1C(=O)N[C@@H](CSc1ccccc1)[C@H](O)CN1C[C@H]2CCCC[C@H]2C[C@H]1C(=O)NC(C)(C)C`: 0.00355 µM [falling, full curve, poor fit]. As for `CCOC(=O)c1c(/N=C/N(C)C)sc(/C=N/Nc2ccccc2)c1-c1ccccc1`, the AC50 under setting [1] was 7.08 µM [rising, single point]. Turning to `Cc1ccc(SC(C)C(=O)Nc2ccccc2-c2ccccc2)cc1` (stereo unspecified), the AC50 reads like this: under setting [1], 35.5 µM [rising, single point]; under setting [2], 35.5 µM [rising, single point]. Consider `NS(=O)(=O)c1cccnc1Nc1cccc(Cl)c1Cl`, for which the AC50 under setting [1] was 35.5 µM [rising, single point] and the AC50 under setting [2] was 35.5 µM [rising, single point]. Regarding `Cc1ccc(OCc2nc(C#N)c(N3CCCCC3)o2)cc1`, the AC50 under setting [1] was 0.708 µM [falling, full curve, poor fit]. In the case of `O=c1cc(-c2ccccc2[N+](=O)[O-])oc2ccccc12`, the AC50 under setting [2] is 35.5 µM [falling, single point]. Turning to `COc1cccc(C2C=C(c3ccc(Br)s3)Nc3ncnn32)c1OC` (stereo unspecified), the AC50 under setting [1] is 0.794 µM [falling, single point]. Still for that read-out and setting: under `N/C(=N\OC(=O)/C=C/c1ccccc1)c1ccc(Br)cc1` stands 35.5 µM [rising, partial curve, poor fit]. Consider `COc1cc(CNC(C)C)c(Br)cc1OC1CCCC1`, for which the AC50 under setting [1] is 12.6 µM [falling, partial curve] and the AC50 under setting [2] was 11.2 µM [falling, partial curve]. With `CC(=O)c1ccc(OCc2cc(=O)n3ccsc3n2)cc1`, the AC50 was 3.55 µM [falling, full curve, poor fit] under setting [1] and 5.62 µM [falling, full curve, poor fit] under setting [2].

As to `O=C(Nc1ccc(Cl)cc1)c1cc(S(=O)(=O)NC2CCCCCC2)ccc1F`, the AC50 was 20 µM [falling, partial curve, poor fit] under setting [1] and 14.1 µM [falling, partial curve, poor fit] under setting [2]. Take `CSc1ccccc1C(=O)NCc1cccnc1`: under setting [2], the AC50 was 0.0631 µM [falling, full curve, poor fit]. On the same count and under the same terms, next, `O=C(Nc1ccccc1)c1ccc(-c2ccccc2Cl)o1`: 17.8 µM [rising, partial curve].

For the compound `O=C(COC(=O)c1ccccc1C(=O)c1ccccc1)NCCc1ccc(Cl)cc1Cl`, under setting [2], the AC50 was 12.6 µM [rising, single point]. As for `Cc1cccc(N(C(=O)Cn2nnc(-c3ccc(F)cc3)n2)C(C(=O)NC(C)(C)C)c2ccncc2)c1` (stereo unspecified), under setting [1], the AC50 is 0.00447 µM [rising, full curve, poor fit].

`COCCCNCC#CCOc1ccc(OC)cc1`: the AC50 under setting [2] is 0.141 µM [rising, full curve, poor fit]. Still for that read-out and setting: next, `O=C(/C=C/c1cccs1)c1cc(Br)ccc1OC(=O)N1CCOCC1`: 2.51 µM [falling, single point]. With `CC(C)n1cc(C(=O)c2ccccc2O)cc(C#N)c1=O`, the AC50 under setting [1] was 0.00355 µM [rising, full curve, poor fit]. Turning to `COc1ccccc1NC(=O)CC(c1ccc(OC(C)C)cc1)c1ccccc1OC` (stereo unspecified), under setting [2], the AC50 is 14.1 µM [rising, single point]. For `COc1ccc(S(=O)(=O)N(C)C)cc1NC(=O)CSc1nc(N)cc(N)n1`, under setting [1], the AC50 is 0.282 µM [falling, full curve, poor fit].

For `O=C(CN1CCN(c2cccc(C(F)(F)F)c2)CC1)Nc1cccc(C(F)(F)F)c1`, under setting [2], the AC50 is 35.5 µM [rising, single point].

Turning to `COc1ccc(C(=O)NCc2ccc(Cl)c(Cl)c2)cc1OC`, the AC50 runs as follows: under setting [1], 11.2 µM [rising, single point]; under setting [2], 17.8 µM [rising, single point]. Consider `CCCCCn1c(=O)[nH]c2cc(C(=O)N3CCN(Cc4ccc5c(c4)OCO5)CC3)ccc2c1=O`, for which the AC50 under setting [2] is 0.794 µM [rising, full curve]. On to `O=C(c1ccccc1Nc1ccc(SC(F)F)cc1)N1CCCCCC1`, for which the AC50 by setting is: under setting [1], 22.4 µM [falling, single point]; under setting [2], 17.8 µM [falling, single point]. Take `N#Cc1cccc(NC(=O)COc2ccc(-n3ccnc3)cc2)c1`: under setting [2], the AC50 is 35.5 µM [rising, single point]. Take `Clc1ccc(CSc2nnc3c(n2)[nH]c2ccccc23)cc1`: the AC50 is 3.16 µM [falling, full curve, poor fit] under setting [1] and 2.82 µM [falling, full curve, poor fit] under setting [2]. On to `O=C(CSc1nnc(-c2ccccc2O)o1)Oc1ccc(OCc2ccccc2)cc1`, for which the AC50 was 14.1 µM [rising, single point] under setting [1] and 12.6 µM [rising, partial curve] under setting [2]. `Cc1cccc(Nc2nc(-c3ccncc3)cs2)c1`: under setting [1], the AC50 was 5.62 µM [falling, single point]. Consider `COc1cccc(-c2ccc3ncnc(N(C)C)c3c2)c1`, for which the AC50 is 12.6 µM [falling, partial curve] under setting [1] and 12.6 µM [falling, partial curve] under setting [2]. Take `CC(C)Oc1cccc(C(=O)NC(=S)Nc2cccc(NC(=O)c3ccccc3Cl)c2)c1`: under setting [2], the AC50 was 17.8 µM [rising, single point]. With `CCOC(=O)N1CCN(c2ccc([N+](=O)[O-])cc2)CC1`, the AC50 is 15.8 µM [rising, single point] under setting [1] and 20 µM [rising, single point] under setting [2]. In the case of `O=S(=O)(c1ccccc1)N1CCN(CC(O)COc2ccc3c(c2)CCC3)CC1` (stereo unspecified), under setting [2], the AC50 is 12.6 µM [rising, single point]. For `CC(C)(C)C(=O)Nc1cc(S(=O)(=O)Nc2ccc(Cl)cc2)ccc1Cl`, the AC50 is, setting by setting: under setting [1], 11.2 µM [rising, single point]; under setting [2], 15.8 µM [rising, partial curve]. As for `CCOC(=O)C(=Cc1cc(=O)c(OC)co1)C(=O)OCC`, the AC50 under setting [1] is 12.6 µM [rising, partial curve, poor fit] and the AC50 under setting [2] was 22.4 µM [rising, single point]. Consider `CN(C)CCC(c1ccccc1)c1ccccn1` (stereo unspecified), for which the AC50 is 7.94 µM [falling, full curve, poor fit] under setting [1] and 0.0447 µM [falling, full curve] under setting [2]. In the case of `O=C(/C=C/c1ccc(Cl)cc1Cl)Nc1cccc(S(=O)(=O)NC2=NCCCCC2)c1`, the AC50 by setting is: under setting [1], 10 µM [rising, partial curve]; under setting [2], 12.6 µM [rising, partial curve]. As to `Cc1ccc(S(=O)(=O)CC(C)N2CCOCC2)c(S(=O)(=O)CC(C)N2CCOCC2)c1` (stereo unspecified), the AC50 under setting [2] is 20 µM [falling, partial curve, poor fit]. In the case of `Cc1ccc(C)c(S(=O)(=O)N2CCCOC2CNC(=O)C(=O)NCCC2=CCCCC2)c1` (stereo unspecified), the AC50 under setting [1] is 25.1 µM [rising, single point] and the AC50 under setting [2] was 35.5 µM [rising, single point]. `C=C(C)CNC(=S)N1CCN(C(c2ccccc2)c2ccccc2)CC1`: the AC50 by setting is: under setting [1], 0.355 µM [falling, full curve, poor fit]; under setting [2], 0.224 µM [falling, full curve, poor fit].
